Measured values published in patent US20020127594A1 (Takeda / Millennium, published 2002).
These are yes or no findings as the source states them, for the method shown. Some binding calls cover weakened binding; strength is not graded here. Tags and fused reporters may be left off the sequences shown.

Legend:
[1] = biological target: p185 (erbB2), 185 kDa receptor-type tyrosine kinase of the EGFR family, in MDA-MB453 breast adenocarcinoma cells (UniProt P04626); test: inferred from p185 phosphorylation assay in MDA-MB453 cells (10% conditioned medium, 15 min, antiphosphotyrosine Western blot)
[2] = biological target: p185 (erbB2), 185 kDa receptor-type tyrosine kinase of the EGFR family, in MDA-MB453 breast adenocarcinoma cells (UniProt P04626); test: inferred from p185 phosphorylation assay in MDA-MB453 cells (conditioned medium, antiphosphotyrosine Western blot)

- binding [1]: binds
- binding [2]: binds
B1: Don-1 EGF domain-containing fusion polypeptide (EGF domain and flanking amino acids 85-154 of murine Don-1, C-terminal Flag epitope tag), secreted by … (ligand, not shown: small tags and cut ends)
chain: LHVNSVSTTLSSWSGHARKCNETAKSYCVNGGVCYYIEGINQLSCKCPNGFFGQRCLEKLPLRLYMPDPK
